Assay results as given in PMC10166511, “Fast cross-linking by DOPA2 promotes the capturing of a stereospecific protein complex over nonspecific encounter complexes” (Biophysics Reports, 2022).
Results are given in words; binding and its absence hold for the method and conditions named. Some results given as binding are weak or reduced against the parent protein; the word gives no strength.

Chains of the proteins cited; added tags and fusions are not shown. Residues count along the entry.
UniProt P69783, residues 2-169: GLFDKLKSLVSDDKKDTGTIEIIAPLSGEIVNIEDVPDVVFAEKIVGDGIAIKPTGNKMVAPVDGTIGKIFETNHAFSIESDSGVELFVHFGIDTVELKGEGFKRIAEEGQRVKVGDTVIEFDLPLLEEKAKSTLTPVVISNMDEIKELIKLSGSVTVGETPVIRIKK

Target: T1, EIIA^Glc (UniProt P69783 2-169)
T1 construct: EIIA^Glc, functional subunit of Enzyme II of the bacterial glucose phosphotransferase system; Species is stated only for enzyme I (E. coli); source: purified as previously described (Garrett et al. 1999; Xing et al. 2014)
Assay: cross-linking; DOPA2 (0.005-0.8 mmol/L, room temperature, 10 min) or DSS (0.05-0.8 mmol/L, room temperature, 1 h); proteins at 1 x KD and 10 x KD in 20 mmol/L HEPES, 150 mmol/L NaCl, pH 7.4; read by SDS-PAGE and by LC-MS/MS after in-gel or in-solution digestion; both purified

binding: binds weakly
B1: EIIB^Glc (domain or fragment)
chain: EDATEDAKATGTSEMAPALVAAFGGKENITNLDACITRLRVSVADVSKVDQAGLKKLGAAGVVVAGSGVQAIFGTKSDNLKTEMDEYIRN
notes: EIIB^Glc, functional subunit of Enzyme II of the bacterial glucose phosphotransferase system; Species is stated only for enzyme I (E. coli); source: purified as previously described (Garrett et al. 1999; Xing et al. 2014)
